Data reported in publication PMC12040169 (PLOS Biology, 2025).
The list shows a part of the results.

test system: T1, CTL2-GFP (C. trachomatis L2/434/Bu, GFP-expressing); design: species or system HeLa; Intracellular C. trachomatis growth in HeLa cells, bulk GFP fluorescence relative to DMSO; settings: bulk GFP, single well; 28.5 h, 10 µM; inhibitor
T1 construct: L2/434/Bu, GFP-expressing

Going from `COc1cc(OC)nc(CN2CCOC3(CCN(C(=O)c4ccc5ccccc5c4)CC3)C2)n1` [CBK161121A] to `COc1cc(OC)nc(Oc2ccc(C(=O)O)cc2)n1` [CBK092222], the “% of control remaining” value rises from 112.889% to 148.551%.

Compared with `COc1ccc(CN(CCN2CCOCC2)C(=O)Nc2cccnc2)cc1OC` [CBK159379], `Cc1cccc(-c2ncc(C(=O)NCCN3CCOCC3)cc2-c2ccc(O)cc2)c1` [CBK037435] is higher in “% of control remaining” value: 146.295% for the first, 154.474% for the second.

First: COCCN(Cc1ccc(OC)cc1)c1c(C)nc2ccc(C(=O)Nc3ccc(NC(C)=O)cc3)cn12 [CBK146111]
Second: COCC(=O)N1CCc2sccc2C1c1ccc(NC(=O)c2ccc(OC)cc2)cc1 (centres unmarked) [CBK286467]
The “% of control remaining” value of the first is lower: 104.096% for the first, 130.829% for the second.

Going from `Cc1ccn2cc(-c3ccc4c(c3)CCN4S(C)(=O)=O)nc2c1` [CBK285221] to `Nc1ccc(-c2cn3ccnc3c(NCC3CC3)n2)cc1` [CBK066677], the “% of control remaining” value rises from 124.802% to 218.324%.

Compared with `CN(c1ccc(C(=O)Nc2ccc(S(=O)(=O)N3CCOCC3)cc2)cc1)S(=O)(=O)c1ccccc1` [CBK264129], `CC(=O)Nc1ccc(S(=O)(=O)N2CCN(S(=O)(=O)c3ccccc3)CC2)cc1` [CBK264163] is higher in “% of control remaining” value: 89.2099% for the first, 100% for the second.

Going from `Cc1cc(-c2ccc(=O)n(CCNC(=O)C3CC3)n2)c(C)o1` [CBK284521] to `Cc1ccc2c(c1)c(C)c(C(=O)NCCn1ccc(C)n1)n2C` [CBK282609], the “% of control remaining” value falls from 106.724% to 87.0769%.

First: COc1cccc(CNC(=O)Cn2nnc(-c3ccc(CN4CCC(C)CC4)cc3)n2)c1OC [CBK144161C]
Second: COc1cc(NC(=O)NCC2CCN(CCOc3c(OC)cccc3OC)CC2)cc(OC)c1 [CBK051514]
The “% of control remaining” value of the first is higher: 108.092% for the first, 100% for the second.

Going from `CCOC(=O)N1CCC(n2c(=O)[nH]c3ccccc32)CC1` [CBK149867] to `Cc1cc(C)n(C(C)C(=O)N2CCC(Nc3cccnc3)CC2)n1` (centres unmarked) [CBK305917], the “% of control remaining” value falls from 131.176% to 80.4279%.

First: Cc1cc(NCc2ccc(C(C)C)cc2)c2ccccc2n1 [CBK122786]
Second: CS(=O)(=O)c1ccc(-c2ccc(C(=O)NCc3ccccc3)cn2)cc1 [CBK158885]
The “% of control remaining” value of the first is higher: 114.474% for the first, 111.032% for the second.

First: CC(=O)Nc1ccc(NC(=O)NCC2CCCO2)c(C(F)(F)F)c1 (centres unmarked) [CBK304150]
Second: N#CCCN(C(=O)Nc1ccc2[nH]ccc2c1)C1CCCCC1 [CBK156362]
The “% of control remaining” value of the first is higher: 106.083% for the first, 102.994% for the second.

First: CCc1c(SCC(=O)O)nc2ccccc2c1C [CBK286928]
Second: O=C(O)CCn1c2ccccc2c2cc(I)ccc21 [CBK262578]
The “% of control remaining” value of the first is higher: 132.392% for the first, 100% for the second.

Going from `O=C(Nc1ccccc1-c1ccccc1)C1CN(S(=O)(=O)c2ccccc2)CCN1S(=O)(=O)c1ccccc1` (centres unmarked) [CBK265902] to `CS(=O)(=O)N1CCC(C(=O)NC(c2ccccc2)c2ccccc2)CC1` [CBK269801], the “% of control remaining” value rises from 128.157% to 136.846%.

Going from `O=C(Cc1ccc2c(c1)CCC2)N1CCCCC1CN1CCOCC1` (centres unmarked) [CBK282704] to `Cc1cc(N2C(=O)CC(N3CCC(C(=O)N4CCOCC4)CC3)C2=O)no1` (centres unmarked) [CBK269035], the “% of control remaining” value falls from 144.838% to 108.087%.

First: O=C1CC2(CCNCC2)Oc2c1ccc1ccccc21 [CBK282714]
Second: CS(=O)(=O)Nc1ccc(N2CCNCC2)c2ccccc12 [CBK059355C]
The “% of control remaining” value of the first is higher: 114.295% for the first, 50.3953% for the second.

Compared with `CCc1nc2ccc(C(=O)NCCN(C)C)cn2c1N(CC)CC(=O)N(C)C` [CBK146762], `Cc1ccc(S(=O)(=O)NC(C)(C)C)cc1C(=O)N(C)Cc1cnn(C)c1` [CBK305433] is lower in “% of control remaining” value: 128.19% for the first, 108.586% for the second.

Going from `O=[N+]([O-])c1ccc(NC(=S)NCCCn2ccnc2)cc1` [CBK264915] to `CC(=O)c1ccc(NC(=O)COn2nnc3ccc([N+](=O)[O-])cc32)cc1` [CBK266980], the “% of control remaining” value rises from 117.415% to 119.99%.

First: Cc1ccc(-c2nn(CCC#N)cc2C(=O)N2CCOCC2)cc1C [CBK305940]
Second: O=C(Cn1cccn1)NCC(c1ccccc1Cl)N1CCOCC1 (centres unmarked) [CBK305593]
The “% of control remaining” value of the first is lower: 115.377% for the first, 133.959% for the second.

First: O=C(CCc1ccc(-c2ccc(F)cc2)o1)Nc1ccc(C(=O)O)cc1 [CBK300502]
Second: O=C(O)c1ccc(NC(=O)c2cnccn2)cc1 [CBK268110]
The “% of control remaining” value of the first is lower: 119.316% for the first, 140.289% for the second.

Going from `Cc1cccn2c(=O)c(/C=C3\SC(=S)N(CC4CCCO4)C3=O)c(NCCCn3ccnc3)nc12` (centres unmarked) [CBK263825] to `CCN1C(=O)CC(N2CCN(c3cc(-c4ccc(OC)cc4)nc(C)n3)CC2)C1=O` (centres unmarked) [CBK269744], the “% of control remaining” value rises from 93.1878% to 102.186%.

First: CC(=O)N1CCC2(CCCC[C@H]3CNCC[C@@H]3NC(=O)CNC2=O)CC1 [CBK292167]
Second: CC(=O)NC1CCN(CC2(c3cccc(F)c3)CCCC2)CC1 [CBK282590]
The “% of control remaining” value of the first is lower: 113.495% for the first, 116.621% for the second.

Compared with `Cc1cccc(-c2ccc(CC3(C(=O)NC(C)C)CCN(C(=O)C(C)C)CC3)cc2)c1` [CBK285756], `Cc1ccc(-c2noc(CN3CCN(C(c4ccccc4)c4ccccc4)CC3)n2)cc1` [CBK266425] is higher in “% of control remaining” value: 115.509% for the first, 162.027% for the second.

First: COc1ccc(C2CC(c3ccc4ccccc4c3)=NN2C(=O)COc2ccccc2C(=O)O)cc1 (centres unmarked) [CBK297503]
Second: COc1ccc(-c2cc(C(=O)OCC(=O)c3cccc4ccccc34)c3ccccc3n2)cc1 [CBK265513]
The “% of control remaining” value of the first is higher: 148.101% for the first, 119.484% for the second.

First: Cc1ccc(C(=O)CSc2nc(O)c3nc[nH]c3n2)cc1 [CBK300520]
Second: O=C(CSc1nnc(-c2ccccc2Br)o1)c1ccc(F)cc1 [CBK068688]
The “% of control remaining” value of the first is lower: 104.953% for the first, 139.321% for the second.

First: Nc1ncc(-c2cccc3cccnc23)nc1N1CCC[C@@H]1CO [CBK063470]
Second: Nc1ncc(-c2cccc(O)c2)nc1-c1ccc(C=O)cc1 [CBK064088]
The “% of control remaining” value of the first is higher: 106.824% for the first, 81.962% for the second.

Compared with `Cc1ccc2nc(SCc3cccc([N+](=O)[O-])c3)nc(C)c2c1` [CBK264370], `Cc1cc(-c2cc(=O)n(CCc3ccccc3)nc2-c2ccco2)on1` [CBK282879] is higher in “% of control remaining” value: 105.587% for the first, 107.616% for the second.

First: COc1cccc2c1cc(C(=O)NC1CCCN(C)C1)n2C (centres unmarked) [CBK283266]
Second: COc1ccc([C@@]23CC[C@H](NC(=O)c4[nH]cnc4C)C[C@@H]2N(C)CC3)cc1OC [CBK038097]
The “% of control remaining” value of the first is lower: 110.039% for the first, 110.629% for the second.

Compared with `O=C1NC[C@]2(CC[C@@H](C(=O)NC3CC3)CC2)Oc2ccc(Cl)cc21` [CBK284889], `CN1C[C@]2(CC[C@@H](C(=O)NC3CC3)CC2)Oc2ccccc2C1=O` [CBK282610] is lower in “% of control remaining” value: 139.038% for the first, 101.716% for the second.

First: CCc1ccc(Oc2c(CC(=O)O)oc3cc(O)c(CC)cc3c2=O)cc1 [CBK266108]
Second: COc1ccc(C(=O)C2=C(O)C(=O)N(CCCN(C)C)C2c2ccncc2)cc1Cl (centres unmarked) [CBK266529]
The “% of control remaining” value of the first is lower: 87.9401% for the first, 135.81% for the second.

Compared with `Cc1cc(C)n(CC(=O)NCCCc2ccc(Cl)cc2)c(=O)n1` [CBK281561], `OC(CN1CCNCC1)Cn1c2ccc(Cl)cc2c2cc(Cl)ccc21` (centres unmarked) [CBK094277G] is lower in “% of control remaining” value: 123.847% for the first, 46.7194% for the second.

First: O=C(C1CCCC1)N1C2CCC1CC(O)(c1cccnc1F)C2 (centres unmarked) [CBK284421]
Second: CN(C(=O)c1cccn1C)C1CCN(c2ncnc3ccccc23)CC1 [CBK306110]
The “% of control remaining” value of the first is lower: 101.422% for the first, 103.862% for the second.

Compared with `CCN1CCN(c2cc(N3CCN(C(=O)COc4ccccc4F)C(C)C3)c([N+](=O)[O-])cc2F)CC1` (centres unmarked) [CBK267513], `OCCN1CCN(c2nnc(-c3ccccc3)cc2-c2ccccc2)CC1` [CBK270045] is higher in “% of control remaining” value: 110.338% for the first, 135.359% for the second.

First: C=CCOc1nc2c(=O)[nH]c(NC(=O)C(C)C)nc2n1[C@H]1C[C@@H](O)[C@@H](CO)O1 [CBK201216]
Second: COc1ccccc1-c1cc([C@H]2CN3CC[C@H]2C[C@@H]3CNC(=O)c2ccco2)nc(C)n1 [CBK289119]
The “% of control remaining” value of the first is higher: 163.171% for the first, 132.908% for the second.

First: CCNS(=O)(=O)c1ccc2c(c1)N(Cc1ccc(CO)o1)CC2 [CBK306158]
Second: Cc1cc(Br)ccc1-n1sc2ccccc2c1=O [CBK116239]
The “% of control remaining” value of the first is higher: 137.785% for the first, 93.279% for the second.

Going from `CSc1nsc(SCC(=O)c2ccc(Oc3ccccc3)cc2)n1` [CBK269104] to `O=C(O)/C=C/c1cn(-c2ccccc2)nc1-c1cccs1` [CBK263119], the “% of control remaining” value falls from 148.077% to 100%.

Compared with `CC1(C)CC(N(Cc2ccccc2)Cc2c[nH]cn2)CC(C)(C)N1` [CBK283196], `COc1ccc(CN2CCCN(c3cc(OCC4COc5ccccc5O4)ncn3)CC2)cc1` (centres unmarked) [CBK083255T] is higher in “% of control remaining” value: 113.385% for the first, 117.691% for the second.

Going from `Cc1noc(C)c1NC(=O)c1cncn1C` [CBK200396] to `CCC(=O)Nc1nnc(-c2ccc3c(c2)OCCO3)o1` [CBK287404], the “% of control remaining” value rises from 63.4177% to 165.361%.

Going from `Cc1cccc(C(=O)Nc2ncn(CC(=O)N3CCCCCC3)n2)n1` [CBK304954] to `NNC(=O)COc1ccc(Cl)cc1Cl` [CBK261671], the “% of control remaining” value rises from 120.259% to 126.475%.

First: CC1(C(F)(F)F)OC(NC2C3CC4CC(C3)CC2C4)=NC1=O (centres unmarked) [CBK115312]
Second: Cn1ncc2c(SCc3cc4c(cc3Br)OCCO4)ncnc21 [CBK297732]
The “% of control remaining” value of the first is lower: 83.6817% for the first, 120.199% for the second.

For `Fc1ccccc1CSc1nnc(-c2cnccn2)n1Cc1ccco1` [CBK267556], the “% of control remaining” value was 140.029%.
